Laboratory results from patent US20150031572A1, “MEANS AND METHODS FOR ASSESSING NEURONAL TOXICITY” (priority 2012, published 2015).

Test: Plasma metabolite profiling (GC-MS, LC-MS, SPE-LC-MS) of rats dosed once daily over 28 days; treatment ratios versus untreated control
Assay type: in vivo, rat
Details: male rats, high dose
Procedure: A group of each 5 male and female rats was dosed once daily with the indicated compounds (see Table 10, below for compounds, applied doses and administration details) over 28 days.
Each dose group in the studies consisted of five rats per sex. Additional groups of each 5 male and female animals served as controls. Before starting the treatment period, animals, which were 62-64 days old when supplied, were acclimatized to the housing and environmental conditions for 7 days. All animals of the animal population were kept under the same constant temperature (20-24±3° C.) and the same constant humidity (30-70%). The animals of the animal population were fed ad libitum. The food to be used was essentially free of chemical or microbial contaminants. Drinking water was also offered ad libitum. Accordingly, the water was free of chemical and microbial contaminants as laid down in the European Drinking Water Directive 98/83/EG. The illumination period was 12 hours light followed by 12 hours darkness (12 hours light, from 6:00 to 18:00, and 12 hours darkness, from 18:00 to 6:00). […] The test substances (compounds) in the Tables 1 to 9 below were dosed and administered as described in the Table 10 above.
In the morning of day 7, 14, and 28, blood was taken from the retro-orbital venous plexus from fasted anaesthetized animals. From each animal, 1 ml of blood was collected with EDTA as anticoagulant. The samples were centrifuged for generation of plasma. All plasma samples were covered with a N2 atmosphere and then stored at −80° C. until analysis.
For mass spectrometry-based metabolite profiling analyses plasma samples were extracted and a polar and a non-polar (lipid) fraction was obtained. For GC-MS analysis, the non-polar fraction was treated with methanol under acidic conditions to yield the fatty acid methyl esters. Both fractions were further derivatised with O-methyl-hydroxyamine hydrochloride and pyridine to convert Oxogroups to O-methyloximes and subsequently with a silylating agent before analysis. In LC-MS analysis, both fractions were reconstituted in appropriate solvent mixtures. HPLC was performed by gradient elution on reversed phase separation columns. Mass spectrometric detection which allows target and high sensitivity MRM (Multiple Reaction Monitoring) profiling in parallel to a full screen analysis was applied as described in WO2003073464.
Steroids and their metabolites were measured by online SPE-LC-MS (Solid phase extraction-LC-MS).
Following comprehensive analytical validation steps, the data for each analyte were normalized against data from pool samples. These samples were run in parallel through the whole process to account for process variability. The significance of treatment group values specific for sex, treatment duration and metabolite was determined by comparing means of the treated groups to the means of the respective untreated control groups using WELCH-test and quantified with treatment ratios versus control and p-values.
The identification of the most important biomarkers per toxicity pattern was done by a ranking of the analytes in the tables below. Therefore the metabolic changes in reference treatments of a given pattern (shown in the table) were compared with changes of the same metabolite in other unrelated treatments. […] The maximum absolute value of the respective TVALUE was taken to indicate the most important metabolite for the pattern.

5-Oxoproline, plasma metabolite ratio versus control (day 7 (m7)): 0.74 | Alanine, plasma metabolite ratio versus control (day 7 (m7)): 0.62 | Arginine (second line of the table), plasma metabolite ratio versus control (day 7 (m7)): 0.80 | Arginine, plasma metabolite ratio versus control (day 7 (m7)): 0.79 | Citrulline, plasma metabolite ratio versus control (day 7 (m7)): 0.92 | Glutamine, plasma metabolite ratio versus control (day 7 (m7)): 0.79 | Proline, plasma metabolite ratio versus control (day 7 (m7)): 0.82 | Tyrosine, plasma metabolite ratio versus control (day 7 (m7)): 0.77 | 5-Oxoproline, plasma metabolite ratio versus control (day 14 (m14)): 0.81 | Alanine, plasma metabolite ratio versus control (day 14 (m14)): 0.68 | Arginine (second line of the table), plasma metabolite ratio versus control (day 14 (m14)): 0.86 | Arginine, plasma metabolite ratio versus control (day 14 (m14)): 0.93 | Citrulline, plasma metabolite ratio versus control (day 14 (m14)): 0.85 | Glutamine, plasma metabolite ratio versus control (day 14 (m14)): 0.63 | Proline, plasma metabolite ratio versus control (day 14 (m14)): 0.87 | Tyrosine, plasma metabolite ratio versus control (day 14 (m14)): 0.88 | 5-Oxoproline, plasma metabolite ratio versus control (day 28 (m28)): 0.78 | Alanine, plasma metabolite ratio versus control (day 28 (m28)): 0.89 | Arginine (second line of the table), plasma metabolite ratio versus control (day 28 (m28)): 0.88 | Arginine, plasma metabolite ratio versus control (day 28 (m28)): 0.88 | Citrulline, plasma metabolite ratio versus control (day 28 (m28)): 0.96 | Glutamine, plasma metabolite ratio versus control (day 28 (m28)): 0.85 | Proline, plasma metabolite ratio versus control (day 28 (m28)): 0.90 | Tyrosine, plasma metabolite ratio versus control (day 28 (m28)): 0.85
Structure (SMILES): Cc1cnc(C(=O)NCCc2ccc(S(=O)(=O)NC(=O)NC3CCCCC3)cc2)cn1 [Glipizide]
